Data taken from PubChem BioAssay AID504467 (National Center for Advancing Translational Sciences (NCATS), 2011).
The whole screen tested about 330,000 compounds, of which about 7,700 (2.3%) were called active. This list was built around the results that the source calls inconclusive (neither active nor inactive); the mix of calls is not that of the screen. Calls come from the whole dose curve; as a rule, active = well fitted inhibition curve with a large enough effect; inconclusive = small, poorly fitted or top-dose-only effect, or effect the other way; inactive = flat fitted curve, though single readings scatter. Potencies beside an inconclusive call are fits to weak or partial responses and may not hold up.

Assay: qHTS screen for small molecules that inhibit ELG1-dependent DNA repair in human embryonic kidney (HEK293T) cells expressing luciferase-tagged ELG1; note: nearly all actives have a fitted effect of over 55% in size
Conditions: HEK293T ELG1-luciferase reporter, luminescence, 16 h, DNA damage induced by 5-fluorouridine; series mostly up to 46.1 µM
Summary of the method: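 Quantitative HTS, concentration-response format. 2,000 cells/well co-treated with 5-fluorouridine and compound, 16 hr in 5% CO2 at 37 °C; ONE-Glo luminescence read after 30 min.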
Potency is the fitted concentration of half-maximal effect.

SMILES | Potency
Cc1ccc(OCC(=O)Nc2cccc(-c3nnc(-c4ccccc4)o3)c2)c(C)c1 | inconclusive: 5.17 µM [inhibitor, partial curve, poor fit]
CC(=O)NC1=NN(C(C)=O)C2(CCCC2)S1 | inconclusive: 25.9 µM [activator, partial curve, poor fit]
O=C(CSc1nc2cc(Cl)ccc2s1)N1CCN(C(=O)c2ccco2)CC1 | inconclusive: 29.1 µM [inhibitor, single point]
Cc1ccc2sc(N(CCCN(C)C)C(=O)CN3C(=O)c4ccccc4C3=O)nc2c1C | inconclusive: 20.6 µM [inhibitor, partial curve]
Cc1cccc(C(=O)N[C@H](C(=O)NCc2cccs2)C(C)C)c1 | inactive
Cn1cc(CCNC(=O)c2ccc3nc(Cc4ccccc4F)oc3c2)cn1 | inconclusive: 16.4 µM [activator, partial curve]
O=C(N/N=C\c1ccc(Cl)s1)c1cccs1 | inconclusive: 18.4 µM [activator, partial curve]
CCCC(=O)Nc1nc(-c2ccccc2)ns1 | inconclusive: 18.4 µM [activator, partial curve]
CCN1CCN(c2ccc(S(=O)(=O)N3CCOCC3)cc2NC(=O)/C=C/c2ccc([N+](=O)[O-])cc2)CC1 | inactive
CCOc1ccc(NC(=O)COC(=O)C2CC2C)cc1 (configuration not stated) | inconclusive: 18.3 µM [activator, partial curve]
CCn1c(SCC(=O)c2ccc(Cl)cc2)nnc1C(C)C | inconclusive: 18.4 µM [activator, single point]
COc1ccc(/C=N/n2cncn2)cc1Cn1nc(C)c([N+](=O)[O-])c1C | inconclusive: 20.6 µM [inhibitor, single point]
CCOC(=O)c1c(-c2ccc(C)o2)csc1N | inactive
CC(=O)c1c(NC(=O)c2ccccc2)[nH]c(-c2ccccc2)nc1=S | inconclusive: 29.1 µM [inhibitor, single point]
CC(C)c1ccc2c(c1)C1(NN=C(c3ccccc3)S1)C(=O)N2 (configuration not stated) | inconclusive: 2.91 µM [activator, partial curve]
COc1ccc2[nH]c(=O)c(CN(Cc3ccccc3)Cc3nnnn3CC3CCCO3)cc2c1 (configuration not stated) | inactive
COc1ccc(COc2cc(-c3cccc(OC)c3)nc3ccc(NC(=O)c4ccccc4)cc23)cc1 | active: 6.51 µM
COc1cc(/C=N/NC(=S)Nc2cccc(C(=O)O)c2)cc(OC)c1OC | inactive
NC(=O)Nc1n[nH]c(-c2ccccc2)n1 | inconclusive: 16.4 µM [activator, single point]
CCN=C1S/C(=C\c2ccc(-c3cccc(C(=O)O)c3)o2)C(=O)N1CC | inconclusive: 0.73 µM [activator, full curve]
CCCNC(=O)COC(=O)c1cccnc1Nc1ccccc1F | inactive

SMILES | Potency
Cc1ccccc1CCNC(=O)C1CCN(S(=O)(=O)c2ccc(-n3cnnn3)cc2)CC1 | inconclusive: 20.6 µM [inhibitor, partial curve, poor fit]
COc1ccc([N+](=O)[O-])cc1NCC(=O)Nc1cc(S(=O)(=O)N2CCCCC2)ccc1C | inconclusive: 20.6 µM [inhibitor, partial curve]
CC(C)OCCCNC(=O)CN1C(=O)CSc2ccc(S(=O)(=O)N3CCCCC3)cc21 | inactive
Cc1ccc(S(=O)(=O)N2CCC(C(=O)N[C@H](C(=O)NC3CCS(=O)(=O)C3)C(C)C)CC2)cc1 (some centres not stated) | inconclusive: 11.6 µM [activator, partial curve, poor fit]
CCSc1nc2sc3c(c2c(=O)n1C1CCCCC1)CCN(C)C3 | inactive
CC(=O)c1ccc(NC(=O)c2cnsn2)cc1 | inconclusive: 9.2 µM [activator, partial curve]
O=C(c1ccccc1)c1nn(-c2ccc(Cl)cc2)cc1C(=O)c1cc2ccccc2oc1=O | inconclusive: 3.26 µM [inhibitor, partial curve, poor fit]
CC(O)c1nc(C(C)O)n(CC(=O)c2ccccc2)n1 (configuration not stated) | inconclusive: 7.94 µM [activator, single point]
O=C(CN1CCCC1c1cccs1)N1CCN(S(=O)(=O)c2ccccc2)CC1 (configuration not stated) | inactive
C=CCOC(=O)C1=C[C@H](c2coc3ccccc3c2=O)[C@@H](CCCO)[C@H](OCC)O1 | inconclusive: 18.3 µM [inhibitor, partial curve, poor fit]
CCOC(=O)c1c(C)c(C(=O)N2CCN(c3cccc(Cl)c3)CC2)c(C)n1C | inconclusive: 2.06 µM [inhibitor, partial curve, poor fit]
Clc1ccc(-c2cn3c(n2)CCC3)cc1 | inconclusive: 2.31 µM [activator, full curve]
Cn1c(=NC(=O)c2ccco2)sc2cccc(F)c21 | inconclusive: 3.66 µM [activator, full curve]
CCCCC12CN3CC(C)(CN(C1)C31C(=O)N(C)c3ccc(C)cc31)C2=O (configuration not stated) | inactive
CCSc1ccc([C@@H]2[C@H]3C(=O)N(CC)C(=O)[C@H]3[C@]3(C(=O)OC)CCCCN23)cc1 | inactive
COc1ccc2[nH]cc(C(=O)CNc3nc(C)cs3)c2c1 | inconclusive: 16.4 µM [activator, partial curve]
CC(C)(C)c1ccc(C(=O)Nc2cccnc2)cc1 | inconclusive: 2.91 µM [activator, partial curve]
COc1ccc(NS(=O)(=O)c2cc(NC(=O)c3ccco3)ccc2N2CCCC2)cc1 | inconclusive: 32.6 µM [inhibitor, single point]
Cc1ccc(C)c(S(=O)(=O)N2CCN(C(=O)CNC(=O)c3ccc4ccccc4c3)CC2)c1 | inconclusive: 20.6 µM [inhibitor, single point]
O=C(CSc1nnc(-c2ccco2)o1)Nc1c(F)cccc1F | inconclusive: 14.6 µM [activator, partial curve, poor fit]
COc1cc(/C=C(/C#N)c2ccc(C)cc2)ccc1Oc1ccc([N+](=O)[O-])cn1 | inactive

Quoted from the listing:
For Potency, C=CCOC(=O)C1=C[C@H](c2coc3ccccc3c2=O)[C@@H](CCCO)[C@H](OCC)O1 has the entry inconclusive: 18.3 µM [inhibitor, partial curve, poor fit]
For Potency, CCSc1ccc([C@@H]2[C@H]3C(=O)N(CC)C(=O)[C@H]3[C@]3(C(=O)OC)CCCCN23)cc1 has the entry inactive
